Experimental data from doi:10.1101/2025.07.14.664640.
No constants are given. Whether binding was seen depends on the method and setting. In cells and extracts the contact can be indirect. Some entries that bind do so weakly or less than the wild type. Sequences can lack the tags named with a protein. Values belong to the binder of their own block, whether it stands above or below them.

Experiments:
TKS5-EGFP, Q5TCZ1 = target: T1, TKS5-EGFP, Q5TCZ1; assay: co-IP; settings: remark: other sources report otherwise
T1 chain: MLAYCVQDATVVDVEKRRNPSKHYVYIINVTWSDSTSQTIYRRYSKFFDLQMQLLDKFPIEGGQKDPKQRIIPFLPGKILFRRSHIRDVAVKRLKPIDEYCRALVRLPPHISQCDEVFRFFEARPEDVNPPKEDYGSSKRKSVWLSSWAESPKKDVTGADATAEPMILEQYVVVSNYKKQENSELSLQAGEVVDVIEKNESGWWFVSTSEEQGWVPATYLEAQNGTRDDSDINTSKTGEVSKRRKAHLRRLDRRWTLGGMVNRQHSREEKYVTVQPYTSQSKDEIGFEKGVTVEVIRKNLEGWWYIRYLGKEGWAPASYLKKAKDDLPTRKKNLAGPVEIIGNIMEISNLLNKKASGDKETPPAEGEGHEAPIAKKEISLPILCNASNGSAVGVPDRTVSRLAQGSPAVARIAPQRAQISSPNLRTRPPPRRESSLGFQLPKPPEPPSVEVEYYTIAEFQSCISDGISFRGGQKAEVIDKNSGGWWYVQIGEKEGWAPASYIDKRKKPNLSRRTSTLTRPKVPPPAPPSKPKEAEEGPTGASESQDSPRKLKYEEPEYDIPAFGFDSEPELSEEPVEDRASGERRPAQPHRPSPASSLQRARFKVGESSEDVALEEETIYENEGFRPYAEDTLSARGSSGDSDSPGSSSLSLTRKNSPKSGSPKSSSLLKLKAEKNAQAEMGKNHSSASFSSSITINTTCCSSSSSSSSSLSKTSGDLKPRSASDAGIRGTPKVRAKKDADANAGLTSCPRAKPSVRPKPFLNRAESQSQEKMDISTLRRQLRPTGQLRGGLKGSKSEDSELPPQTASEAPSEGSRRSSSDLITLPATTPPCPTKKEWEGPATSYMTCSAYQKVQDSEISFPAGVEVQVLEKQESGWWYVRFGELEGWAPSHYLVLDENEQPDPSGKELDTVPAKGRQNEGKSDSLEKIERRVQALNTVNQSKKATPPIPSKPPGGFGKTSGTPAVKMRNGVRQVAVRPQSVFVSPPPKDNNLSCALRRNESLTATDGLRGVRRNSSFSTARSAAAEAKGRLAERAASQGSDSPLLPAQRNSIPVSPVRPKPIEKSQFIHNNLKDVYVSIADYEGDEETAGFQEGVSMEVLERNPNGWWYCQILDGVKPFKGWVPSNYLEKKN

TKS5-EGFP = target: T2, TKS5-EGFP (UniProt Q5TCZ1); assay: co-IP
T2 sequence: T1 chain

[1] = target: GST-SH3 (SH3 domain of cortactin fused to GST) (UniProt Q14247); assay: pull-down

- binding (TKS5-EGFP, Q5TCZ1): binds
B1: Src substrate cortactin, endogenous in MKN-74 cells, Q14247 1-550 (protein)
chain: MWKASAGHAVSIAQDDAGADDWETDPDFVNDVSEKEQRWGAKTVQGSGHQEHINIHKLRENVFQEHQTLKEKELETGPKASHGYGGKFGVEQDRMDKSAVGHEYQSKLSKHCSQVDSVRGFGGKFGVQMDRVDQSAVGFEYQGKTEKHASQKDYSSGFGGKYGVQADRVDKSAVGFDYQGKTEKHESQRDYSKGFGGKYGIDKDKVDKSAVGFEYQGKTEKHESQKDYVKGFGGKFGVQTDRQDKCALGWDHQEKLQLHESQKDYKTGFGGKFGVQSERQDSAAVGFDYKEKLAKHESQQDYSKGFGGKYGVQKDRMDKNASTFEDVTQVSSAYQKTVPVEAVTSKTSNIRANFENLAKEKEQEDRRKAEAERAQRMAKERQEQEEARRKLEEQARAKTQTPPVSPAPQPTEERLPSSPVYEDAASFKAELSYRGPVSGTEPEPVYSMEAADYREASSQQGLAYATEAVYESAEAPGHYPAEDSTYDEYENDLGITAVALYDYQAAGDDEISFDPDDIITNIEMIDDGWWRGVCKGRYGLFPANYVELRQ

- binding (TKS5-EGFP): no binding
- binding [1]: binds
B2: HCLS1-binding protein 3 (HS1BP3), endogenous in MKN-74 cells (protein, UniProt Q53T59 1-392)
chain: MQSPAVLVTSRRLQNAHTGLDLTVPQHQEVRGKMMSGHVEYQILVVTRLAAFKSAKHRPEDVVQFLVSKKYSEIEEFYQKLSSRYAAASLPPLPRKVLFVGESDIRERRAVFNEILRCVSKDAELAGSPELLEFLGTRSPGAAGLTSRDSSVLDGTDSQTGNDEEAFDFFEEQDQVAEEGPPVQSLKGEDAEESLEEEEALDPLGIMRSKKPKKHPKVAVKAKPSPRLTIFDEEVDPDEGLFGPGRKLSPQDPSEDVSSVDPLKLFDDPDLGGAIPLGDSLLLPAACESGGPTPSLSHRDASKELFRVEEDLDQILNLGAEPKPKPQLKPKPPVAAKPVIPRKPAVPPKAGPAEAVAGQQKPQEQIQAMDEMDILQYIQDHDTPAQAAPSLF

- binding [1]: binds
B3: EGFP-HS1BP3 WT (protein, UniProt Q53T59 1-392)
chain: B2 chain
